Source: the supplement of paper PMC10849652
The other results are listed elsewhere or left out.

Sequences of proteins named here, by UniProt entry; tags and fusion partners are left off. A change or cut given only in a name is not applied to a line headed by its entry.
UniProt P30044: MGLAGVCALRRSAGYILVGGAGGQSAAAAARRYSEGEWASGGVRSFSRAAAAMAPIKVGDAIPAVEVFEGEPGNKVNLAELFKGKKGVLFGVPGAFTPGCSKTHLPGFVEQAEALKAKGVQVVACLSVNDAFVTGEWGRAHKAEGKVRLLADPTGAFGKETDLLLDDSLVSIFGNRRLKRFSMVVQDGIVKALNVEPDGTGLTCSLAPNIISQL
UniProt Q9ULR3: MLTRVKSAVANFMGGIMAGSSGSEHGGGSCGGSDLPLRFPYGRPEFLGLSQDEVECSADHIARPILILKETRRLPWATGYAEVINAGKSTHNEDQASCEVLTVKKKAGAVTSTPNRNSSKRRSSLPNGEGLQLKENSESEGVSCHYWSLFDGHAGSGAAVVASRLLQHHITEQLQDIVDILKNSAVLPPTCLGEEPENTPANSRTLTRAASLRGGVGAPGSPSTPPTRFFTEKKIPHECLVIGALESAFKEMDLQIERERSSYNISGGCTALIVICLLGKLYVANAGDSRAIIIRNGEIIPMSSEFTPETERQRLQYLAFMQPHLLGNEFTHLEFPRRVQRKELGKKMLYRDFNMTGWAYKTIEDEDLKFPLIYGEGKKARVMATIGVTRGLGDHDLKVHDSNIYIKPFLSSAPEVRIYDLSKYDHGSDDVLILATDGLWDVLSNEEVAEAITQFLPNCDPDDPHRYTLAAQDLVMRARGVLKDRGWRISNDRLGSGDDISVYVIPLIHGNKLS
UniProt Q86WR7: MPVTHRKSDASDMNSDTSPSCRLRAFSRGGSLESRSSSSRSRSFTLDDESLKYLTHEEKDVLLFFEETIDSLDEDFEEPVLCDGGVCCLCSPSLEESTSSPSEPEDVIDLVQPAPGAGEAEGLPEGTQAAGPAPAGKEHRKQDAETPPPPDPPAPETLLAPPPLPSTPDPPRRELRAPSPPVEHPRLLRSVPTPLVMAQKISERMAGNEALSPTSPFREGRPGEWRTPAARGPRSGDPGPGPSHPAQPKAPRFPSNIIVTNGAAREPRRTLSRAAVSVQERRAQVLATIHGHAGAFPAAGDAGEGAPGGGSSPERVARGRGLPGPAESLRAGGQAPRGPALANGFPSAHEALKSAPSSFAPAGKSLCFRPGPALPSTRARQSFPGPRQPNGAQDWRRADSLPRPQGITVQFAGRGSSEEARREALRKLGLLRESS
UniProt Q96SB3: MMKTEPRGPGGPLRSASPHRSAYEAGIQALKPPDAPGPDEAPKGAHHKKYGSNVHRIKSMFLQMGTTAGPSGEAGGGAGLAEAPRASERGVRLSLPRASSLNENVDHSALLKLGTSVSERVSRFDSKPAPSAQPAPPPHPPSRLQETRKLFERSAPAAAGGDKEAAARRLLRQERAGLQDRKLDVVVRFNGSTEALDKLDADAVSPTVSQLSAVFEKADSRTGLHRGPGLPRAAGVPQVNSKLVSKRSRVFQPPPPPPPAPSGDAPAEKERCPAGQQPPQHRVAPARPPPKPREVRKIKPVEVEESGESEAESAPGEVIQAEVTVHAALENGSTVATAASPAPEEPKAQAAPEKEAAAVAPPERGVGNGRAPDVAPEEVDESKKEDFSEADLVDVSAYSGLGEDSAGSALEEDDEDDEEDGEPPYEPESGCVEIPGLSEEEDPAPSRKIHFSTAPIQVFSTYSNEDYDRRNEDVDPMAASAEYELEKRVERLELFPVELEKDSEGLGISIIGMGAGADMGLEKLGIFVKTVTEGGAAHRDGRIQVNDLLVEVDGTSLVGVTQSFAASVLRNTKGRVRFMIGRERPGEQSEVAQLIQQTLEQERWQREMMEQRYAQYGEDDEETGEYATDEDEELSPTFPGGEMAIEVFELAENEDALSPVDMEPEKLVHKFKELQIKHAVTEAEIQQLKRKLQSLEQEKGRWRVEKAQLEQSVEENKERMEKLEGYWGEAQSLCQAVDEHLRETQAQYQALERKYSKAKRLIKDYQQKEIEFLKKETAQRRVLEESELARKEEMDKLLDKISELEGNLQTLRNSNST
UniProt Q9Y6M0: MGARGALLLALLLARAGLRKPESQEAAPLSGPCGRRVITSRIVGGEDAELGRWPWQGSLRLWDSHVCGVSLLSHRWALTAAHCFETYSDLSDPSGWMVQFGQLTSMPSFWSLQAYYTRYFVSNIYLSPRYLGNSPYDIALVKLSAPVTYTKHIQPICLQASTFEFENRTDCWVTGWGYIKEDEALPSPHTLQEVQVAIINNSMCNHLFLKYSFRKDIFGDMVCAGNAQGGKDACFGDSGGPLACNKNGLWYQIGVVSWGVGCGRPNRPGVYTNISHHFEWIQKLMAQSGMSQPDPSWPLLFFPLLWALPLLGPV
UniProt P63098, whole entry, looked up: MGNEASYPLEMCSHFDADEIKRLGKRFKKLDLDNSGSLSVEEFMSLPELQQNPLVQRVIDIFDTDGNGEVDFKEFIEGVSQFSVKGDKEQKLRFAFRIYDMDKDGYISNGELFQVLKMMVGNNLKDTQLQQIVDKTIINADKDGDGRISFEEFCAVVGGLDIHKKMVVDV
UniProt Q14738, whole entry, looked up: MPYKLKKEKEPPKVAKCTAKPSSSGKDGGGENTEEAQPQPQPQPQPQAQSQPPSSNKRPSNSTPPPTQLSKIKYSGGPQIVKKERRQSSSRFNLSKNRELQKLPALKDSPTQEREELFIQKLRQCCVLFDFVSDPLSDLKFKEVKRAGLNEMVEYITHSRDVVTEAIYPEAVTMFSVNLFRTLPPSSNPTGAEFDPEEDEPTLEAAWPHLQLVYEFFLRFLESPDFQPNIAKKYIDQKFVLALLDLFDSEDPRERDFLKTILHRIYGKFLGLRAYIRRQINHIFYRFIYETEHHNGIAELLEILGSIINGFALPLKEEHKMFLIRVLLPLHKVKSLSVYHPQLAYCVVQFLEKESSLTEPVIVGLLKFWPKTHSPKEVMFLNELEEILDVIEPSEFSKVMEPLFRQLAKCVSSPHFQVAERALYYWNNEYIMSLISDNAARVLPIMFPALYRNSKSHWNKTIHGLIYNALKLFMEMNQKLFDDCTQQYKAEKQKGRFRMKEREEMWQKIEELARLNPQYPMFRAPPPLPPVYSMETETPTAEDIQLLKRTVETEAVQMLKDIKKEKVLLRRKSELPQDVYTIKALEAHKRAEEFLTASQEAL
UniProt P11908: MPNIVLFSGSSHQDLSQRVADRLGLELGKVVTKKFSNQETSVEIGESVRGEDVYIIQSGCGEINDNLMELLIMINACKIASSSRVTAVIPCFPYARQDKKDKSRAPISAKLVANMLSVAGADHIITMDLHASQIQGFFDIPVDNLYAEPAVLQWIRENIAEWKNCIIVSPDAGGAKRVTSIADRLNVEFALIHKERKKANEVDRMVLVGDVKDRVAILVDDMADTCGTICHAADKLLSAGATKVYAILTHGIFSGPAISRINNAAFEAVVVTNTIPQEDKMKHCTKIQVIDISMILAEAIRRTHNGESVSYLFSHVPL
UniProt O75569: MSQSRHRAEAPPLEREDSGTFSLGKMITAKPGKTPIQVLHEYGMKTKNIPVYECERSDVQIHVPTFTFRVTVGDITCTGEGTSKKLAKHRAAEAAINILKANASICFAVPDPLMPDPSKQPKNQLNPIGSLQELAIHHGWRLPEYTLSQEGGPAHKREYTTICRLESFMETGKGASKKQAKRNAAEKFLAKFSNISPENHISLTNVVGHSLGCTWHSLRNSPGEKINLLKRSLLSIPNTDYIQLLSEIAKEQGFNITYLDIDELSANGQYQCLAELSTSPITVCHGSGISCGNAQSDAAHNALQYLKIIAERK
UniProt Q9Y520: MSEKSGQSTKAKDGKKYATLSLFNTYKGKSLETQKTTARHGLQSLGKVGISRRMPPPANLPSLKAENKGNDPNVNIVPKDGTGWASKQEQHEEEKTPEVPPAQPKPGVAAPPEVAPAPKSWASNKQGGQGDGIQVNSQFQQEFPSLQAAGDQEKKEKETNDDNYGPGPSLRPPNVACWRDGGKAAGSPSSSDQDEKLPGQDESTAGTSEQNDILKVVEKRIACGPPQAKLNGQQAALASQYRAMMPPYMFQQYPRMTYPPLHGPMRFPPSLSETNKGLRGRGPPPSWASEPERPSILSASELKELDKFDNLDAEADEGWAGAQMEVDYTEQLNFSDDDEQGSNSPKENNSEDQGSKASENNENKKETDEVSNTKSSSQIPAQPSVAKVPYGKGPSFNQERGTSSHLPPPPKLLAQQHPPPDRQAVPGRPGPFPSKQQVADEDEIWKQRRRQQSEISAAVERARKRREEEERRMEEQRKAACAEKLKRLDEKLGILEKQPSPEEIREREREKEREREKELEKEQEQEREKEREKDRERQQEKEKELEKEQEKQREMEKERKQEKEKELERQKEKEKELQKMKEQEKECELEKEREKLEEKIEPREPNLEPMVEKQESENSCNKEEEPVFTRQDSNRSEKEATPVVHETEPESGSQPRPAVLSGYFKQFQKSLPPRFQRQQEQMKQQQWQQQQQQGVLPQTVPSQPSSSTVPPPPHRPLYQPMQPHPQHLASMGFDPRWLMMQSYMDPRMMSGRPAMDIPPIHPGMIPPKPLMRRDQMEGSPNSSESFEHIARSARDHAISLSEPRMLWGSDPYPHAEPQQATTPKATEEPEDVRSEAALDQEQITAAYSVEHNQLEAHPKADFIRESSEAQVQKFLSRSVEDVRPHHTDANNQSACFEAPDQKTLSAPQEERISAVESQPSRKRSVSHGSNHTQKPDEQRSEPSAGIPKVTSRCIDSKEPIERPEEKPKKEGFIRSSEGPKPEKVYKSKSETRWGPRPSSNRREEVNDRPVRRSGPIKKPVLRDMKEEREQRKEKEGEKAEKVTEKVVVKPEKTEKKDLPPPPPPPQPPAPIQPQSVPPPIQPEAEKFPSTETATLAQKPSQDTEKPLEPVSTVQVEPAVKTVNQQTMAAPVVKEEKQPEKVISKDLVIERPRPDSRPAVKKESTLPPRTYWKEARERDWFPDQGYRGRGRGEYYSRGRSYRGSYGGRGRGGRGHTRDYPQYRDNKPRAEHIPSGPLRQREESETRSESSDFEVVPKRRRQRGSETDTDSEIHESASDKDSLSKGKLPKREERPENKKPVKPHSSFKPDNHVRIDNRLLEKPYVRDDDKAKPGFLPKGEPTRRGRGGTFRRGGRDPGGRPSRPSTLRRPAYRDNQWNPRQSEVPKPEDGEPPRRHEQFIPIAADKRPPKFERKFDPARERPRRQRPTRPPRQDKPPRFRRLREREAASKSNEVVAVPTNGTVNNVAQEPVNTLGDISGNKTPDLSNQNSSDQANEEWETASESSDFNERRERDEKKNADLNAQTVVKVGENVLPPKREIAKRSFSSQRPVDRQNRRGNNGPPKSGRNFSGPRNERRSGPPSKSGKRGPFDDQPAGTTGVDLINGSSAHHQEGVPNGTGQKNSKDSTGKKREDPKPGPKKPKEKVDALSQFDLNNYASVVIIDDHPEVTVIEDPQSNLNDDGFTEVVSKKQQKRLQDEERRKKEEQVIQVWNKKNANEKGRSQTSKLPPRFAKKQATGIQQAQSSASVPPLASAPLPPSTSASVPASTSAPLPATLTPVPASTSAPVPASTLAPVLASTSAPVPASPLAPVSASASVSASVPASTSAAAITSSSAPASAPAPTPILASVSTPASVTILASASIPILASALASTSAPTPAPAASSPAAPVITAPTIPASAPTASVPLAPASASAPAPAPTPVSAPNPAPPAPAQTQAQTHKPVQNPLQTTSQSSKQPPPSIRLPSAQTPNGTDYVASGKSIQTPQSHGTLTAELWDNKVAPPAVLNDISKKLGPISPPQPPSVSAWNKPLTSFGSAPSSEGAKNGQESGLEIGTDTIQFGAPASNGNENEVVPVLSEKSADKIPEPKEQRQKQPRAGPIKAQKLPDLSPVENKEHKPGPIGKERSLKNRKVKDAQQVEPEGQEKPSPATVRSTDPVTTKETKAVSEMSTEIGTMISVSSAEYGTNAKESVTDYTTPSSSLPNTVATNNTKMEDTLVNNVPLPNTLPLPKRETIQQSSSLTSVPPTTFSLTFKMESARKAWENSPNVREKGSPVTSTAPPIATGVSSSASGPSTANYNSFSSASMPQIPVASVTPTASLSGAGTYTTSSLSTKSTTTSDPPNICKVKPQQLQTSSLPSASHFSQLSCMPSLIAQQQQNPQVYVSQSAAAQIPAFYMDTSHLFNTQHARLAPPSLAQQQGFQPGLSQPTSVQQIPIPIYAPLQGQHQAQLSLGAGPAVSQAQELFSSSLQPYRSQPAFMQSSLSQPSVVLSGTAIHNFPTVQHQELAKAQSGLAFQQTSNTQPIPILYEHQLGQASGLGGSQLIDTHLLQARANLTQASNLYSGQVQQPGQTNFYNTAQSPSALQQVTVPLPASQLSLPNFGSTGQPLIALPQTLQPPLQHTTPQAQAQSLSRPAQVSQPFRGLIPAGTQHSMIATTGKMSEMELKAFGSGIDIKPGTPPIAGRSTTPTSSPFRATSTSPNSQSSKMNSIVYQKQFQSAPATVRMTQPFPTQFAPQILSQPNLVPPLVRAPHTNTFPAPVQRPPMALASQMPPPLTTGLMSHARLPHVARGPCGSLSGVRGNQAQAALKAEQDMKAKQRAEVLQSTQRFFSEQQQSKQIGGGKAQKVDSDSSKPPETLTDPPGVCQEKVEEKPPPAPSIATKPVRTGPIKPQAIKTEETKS

How the values were obtained:
Assay in all cases: log2 fold change, soluble protein after heating vs DMSO (PISA); higher = thermal stabilisation; K562 cells, 10 uM, 30 min; active = over 0.2 and 3.5 SD of the protein, either way, in both replicates (recomputed)
[1] = compound: COC1=CC=C(C=C1)CN2C=CC3=C2C=C(C=C3)C(=O)NO
In short: (§1)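 Thermal stability values are relative to control samples and come from duplicates. They are expressed as log2 fold changes. For measurement, K562 cells (2×10^6 cells/mL) received 10 μM compound for 30 min, and aliquots were heated for 3 min over 48°C-58°C, pooled, and extracted at 4°C in PBS with 0.5% NP-40. Soluble protein, the supernatant after 21,000xg for 90 min, was quantified by TMTpro 16plex LC-MS/MS with equalised channel sums.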

filanesib = compound: CON(C)C(=O)N1N=C(c2cc(F)ccc2F)S[C@@]1(CCCN)c1ccccc1 [filanesib]
In short: as §1

zotarolimus = compound: CO[C@H]1C[C@@H]2CC[C@@H](C)[C@@](O)(O2)C(=O)C(=O)N2CCCC[C@H]2C(=O)O[C@H]([C@H](C)C[C@@H]2CC[C@H](n3cnnn3)[C@H](OC)C2)CC(=O)[C@H](C)/C=C(\C)[C@@H](O)[C@@H](OC)C(=O)[C@H](C)C[C@H](C)/C=C/C=C/C=C/1C [zotarolimus]
In short: as §1

idasanutlin = compound: COc1cc(C(=O)O)ccc1NC(=O)[C@@H]1N[C@@H](CC(C)(C)C)[C@](C#N)(c2ccc(Cl)cc2F)[C@H]1c1cccc(Cl)c1F [idasanutlin]
In short: as §1

alisertib = compound: COc1cc(Nc2ncc3c(n2)-c2ccc(Cl)cc2C(c2c(F)cccc2OC)=NC3)ccc1C(=O)O [alisertib]
In short: as §1

[2] = compound: COc1cc2nc(-c3cc(F)ccc3O)nc(N[C@@H]3CNC[C@H]3C(C)(C)O)c2cc1OC
In short: as §1

gefitinib = compound: COc1cc2ncnc(Nc3ccc(F)c(Cl)c3)c2cc1OCCCN1CCOCC1 [gefitinib]
In short: as §1

[3] = compound: COc1cccc2cc(-c3nc([C@H]4CC[C@H](C(=O)O)CC4)n4ncnc(N)c34)[nH]c12
In short: as §1

lapatinib = compound: CS(=O)(=O)CCNCc1ccc(-c2ccc3ncnc(Nc4ccc(OCc5cccc(F)c5)c(Cl)c4)c3c2)o1 [lapatinib]
In short: as §1

pictilisib = compound: CS(=O)(=O)N1CCN(Cc2cc3nc(-c4cccc5[nH]ncc45)nc(N4CCOCC4)c3s2)CC1 [pictilisib]
In short: as §1

[4] = compound: CS(=O)(=O)c1ccc(-c2cnc(N)c(C(=O)Nc3ccccc3)n2)cc1
In short: as §1

crizotinib = compound: C[C@@H](Oc1cc(-c2cnn(C3CCNCC3)c2)cnc1N)c1c(Cl)ccc(F)c1Cl [crizotinib]
In short: as §1

[5] = compound: C[C@@H]1COCCN1C2=NC(=NC(=C2)C3(CC3)S(=O)(=O)C)C4=C5C=CNC5=CC=C4
In short: as §1

[6] = compound: C[C@H](C1=CC=C(C=C1)C(=O)NC2=C3C=CNC3=NC=C2)N
In short: as §1

duvelisib = compound: C[C@H](Nc1ncnc2nc[nH]c12)c1cc2cccc(Cl)c2c(=O)n1-c1ccccc1 [duvelisib]
In short: as §1

gandotinib = compound: Cc1cc(Nc2cc(CN3CCOCC3)c3nc(C)c(Cc4ccc(Cl)cc4F)n3n2)n[nH]1 [gandotinib]
In short: as §1

tozasertib = compound: Cc1cc(Nc2cc(N3CCN(C)CC3)nc(Sc3ccc(NC(=O)C4CC4)cc3)n2)n[nH]1 [tozasertib]
In short: as §1

[7] = compound: Cc1cc(SCc2sc(-c3ccc(C(F)(F)F)cc3)nc2C)ccc1OCC(=O)O
In short: as §1

doramapimod = compound: Cc1ccc(-n2nc(C(C)(C)C)cc2NC(=O)Nc2ccc(OCCN3CCOCC3)c3ccccc23)cc1 [doramapimod]
In short: as §1

ispinesib = compound: Cc1ccc(C(=O)N(CCCN)[C@@H](c2nc3cc(Cl)ccc3c(=O)n2Cc2ccccc2)C(C)C)cc1 [ispinesib]
In short: as §1

Measured: log2 fold change

PRDX5 (UniProt P30044)
inactive: [1] 0 | filanesib -0.006 | zotarolimus -0.051 | idasanutlin 0.023 | alisertib -0.008 | [2] 0.007 | gefitinib 0.018 | [3] 0.044 | lapatinib -0.046 | pictilisib -0.01 | [4] 0.015 | crizotinib 0.057 | [5] 0.067 | [6] -0.063 | duvelisib 0.045 | gandotinib -0.02 | tozasertib 0 | [7] -0.041 | doramapimod -0.003 | ispinesib 0.014

PPP2CB (UniProt P62714)
inactive: [1] 0.011 | filanesib -0.023 | zotarolimus -0.03 | idasanutlin 0.016 | alisertib -0.041 | [2] 0.007 | gefitinib 0.006 | [3] 0.049 | lapatinib 0.031 | pictilisib 0.039 | [4] -0.013 | crizotinib 0.046 | [5] -0.007 | [6] -0.046 | duvelisib 0.039 | gandotinib -0.007 | tozasertib -0.027 | [7] -0.05 | doramapimod -0.019 | ispinesib 0.019

PRDX3 (UniProt P30048)
inactive: [1] 0.067 | filanesib 0.021 | zotarolimus -0.026 | idasanutlin 0.028 | alisertib -0.094 | [2] 0.008 | gefitinib 0.003 | [3] 0.023 | lapatinib 0.022 | pictilisib 0.07 | [4] 0.031 | crizotinib 0.025 | [5] -0.006 | [6] -0.203 | duvelisib -0.02 | gandotinib 0.032 | tozasertib 0 | [7] -0.035 | doramapimod -0.009 | ispinesib 0.059

PPP1CC isoform 2 (UniProt P36873)
inactive: [1] 0.074 | filanesib -0.038 | zotarolimus 0.024 | idasanutlin 0.014 | alisertib -0.058 | [2] 0 | gefitinib 0.008 | [3] -0.022 | lapatinib 0.003 | pictilisib -0.01 | [4] -0.023 | crizotinib 0.053 | [5] 0.044 | [6] -0.094 | duvelisib 0.021 | gandotinib 0.024 | tozasertib -0.01 | [7] 0.008 | doramapimod -0.047 | ispinesib 0.061

PPM1H (UniProt Q9ULR3)
inactive: [1] -0.007 | filanesib 0 | zotarolimus -0.027 | idasanutlin -0.045 | alisertib -0.022 | [2] 0.039 | gefitinib 0.029 | [3] 0.075 | lapatinib 0.019 | pictilisib 0.049 | [4] 0.007 | crizotinib 0.037 | [5] 0.124 | [6] -0.072 | duvelisib 0.046 | gandotinib -0.03 | tozasertib -0.021 | [7] -0.057 | doramapimod 0.017 | ispinesib 0.041

PPP4C (UniProt P60510)
inactive: [1] -0.173 | filanesib 0.019 | zotarolimus 0.015 | idasanutlin -0.037 | alisertib -0.129 | [2] 0.013 | gefitinib -0.026 | [3] 0.093 | lapatinib -0.033 | pictilisib 0.011 | [4] 0.014 | crizotinib -0.012 | [5] 0.079 | [6] -0.046 | duvelisib 0.057 | gandotinib -0.074 | tozasertib 0.024 | [7] -0.05 | doramapimod 0.007 | ispinesib 0.018

PROSER2 (UniProt Q86WR7)
inactive: [1] -0.067 | filanesib 0.076 | zotarolimus -0.092 | idasanutlin 0.029 | alisertib 0.005 | [2] 0.05 | gefitinib 0.007 | [3] 0.105 | lapatinib 0.019 | pictilisib 0.177 | [4] 0.026 | crizotinib -0.035 | [5] 0.064 | [6] 0.05 | duvelisib 0.046 | gandotinib 0.042 | tozasertib -0.168 | [7] 0.029 | doramapimod 0 | ispinesib 0.001

PPP1R9B (UniProt Q96SB3)
inactive: [1] -0.205 | filanesib 0.15 | zotarolimus -0.052 | idasanutlin 0.073 | alisertib -0.028 | [2] 0.047 | gefitinib 0.172 | [3] 0.005 | lapatinib -0.121 | pictilisib -0.1 | [4] 0.015 | crizotinib 0.037 | [5] -0.222 | [6] 0.12 | duvelisib -0.088 | gandotinib 0.046 | tozasertib 0.067 | [7] -0.18 | doramapimod 0.025 | ispinesib -0.04

PRSS21 (UniProt Q9Y6M0)
inactive: [1] -0.117 | filanesib 0.042 | zotarolimus 0.043 | idasanutlin 0.055 | alisertib -0.071 | [2] 0.018 | gefitinib -0.016 | [3] -0.063 | lapatinib 0.052 | pictilisib 0.015 | [4] 0.003 | crizotinib 0.016 | [5] -0.012 | [6] 0.009 | duvelisib -0.028 | gandotinib 0.052 | tozasertib 0.064 | [7] 0.049 | doramapimod 0.082 | ispinesib 0.033

PPP3R1 (UniProt P63098)
inactive: [1] -0.005 | filanesib -0.17 | zotarolimus -0.022 | idasanutlin -0.037 | alisertib -0.005 | [2] -0.019 | gefitinib -0.022 | [3] 0.004 | lapatinib 0.004 | pictilisib 0.005 | [4] -0.018 | crizotinib -0.024 | [5] 0.019 | [6] -0.053 | duvelisib 0.027 | gandotinib 0.02 | tozasertib 0.053 | [7] 0.003 | doramapimod -0.034 | ispinesib -0.009

PPM1F (UniProt P49593)
inactive: [1] 0.006 | filanesib -0.04 | zotarolimus 0.025 | idasanutlin -0.052 | alisertib -0.017 | [2] 0.055 | gefitinib -0.04 | [3] 0.013 | lapatinib -0.022 | pictilisib 0.012 | [4] 0.032 | crizotinib -0.104 | [5] 0.069 | [6] -0.055 | duvelisib 0.001 | gandotinib -0.065 | tozasertib -0.025 | [7] 0.019 | doramapimod -0.017 | ispinesib -0.02

PRDX1 (UniProt Q06830)
inactive: [1] -0.029 | filanesib -0.061 | zotarolimus 0 | idasanutlin -0.015 | alisertib -0.012 | [2] -0.016 | gefitinib -0.006 | [3] 0.057 | lapatinib 0.025 | pictilisib 0.066 | [4] 0.047 | crizotinib -0.02 | [5] 0.05 | [6] -0.043 | duvelisib 0.005 | gandotinib -0.014 | tozasertib -0.035 | [7] -0.013 | doramapimod -0.012 | ispinesib 0.042

PPP2R5D (UniProt Q14738)
inactive: [1] 0.073 | filanesib -0.078 | zotarolimus 0.091 | idasanutlin -0.084 | alisertib 0.029 | [2] 0.008 | gefitinib -0.005 | [3] -0.005 | lapatinib 0.109 | pictilisib 0.005 | [4] 0 | crizotinib 0.042 | [5] 0.086 | [6] -0.035 | duvelisib 0.015 | gandotinib 0.011 | tozasertib 0.121 | [7] 0.088 | doramapimod -0.033 | ispinesib 0.064

PRPS2 isoform 2 (UniProt P11908)
inactive: [1] -0.063 | filanesib -0.021 | zotarolimus -0.014 | idasanutlin -0.024 | alisertib -0.019 | [2] 0.044 | gefitinib -0.038 | [3] 0.038 | lapatinib -0.01 | pictilisib 0.021 | [4] -0.004 | crizotinib 0.014 | [5] 0.036 | [6] 0.016 | duvelisib 0.01 | gandotinib -0.002 | tozasertib -0.016 | [7] 0.016 | doramapimod 0 | ispinesib 0.027

PRKRA (UniProt O75569)
inactive: [1] -0.176 | filanesib 0.279 | zotarolimus 0.074 | idasanutlin 0.238 | alisertib -0.134 | [2] -0.111 | gefitinib -0.037 | [3] -0.408 | lapatinib 0.157 | pictilisib -0.258 | [4] -0.068 | crizotinib -0.089 | [5] -0.289 | [6] 0.555 | duvelisib -0.252 | gandotinib 0.034 | tozasertib 0.138 | [7] 0.078 | doramapimod -0.069 | ispinesib -0.4

2 consecutive entries already listed, quoted:
PRDX1 (UniProt Q06830)
inactive: [1] -0.029 | filanesib -0.061 | zotarolimus 0 | idasanutlin -0.015 | alisertib -0.012 | [2] -0.016 | gefitinib -0.006 | [3] 0.057 | lapatinib 0.025 | pictilisib 0.066 | [4] 0.047 | crizotinib -0.02 | [5] 0.05 | [6] -0.043 | duvelisib 0.005 | gandotinib -0.014 | tozasertib -0.035 | [7] -0.013 | doramapimod -0.012 | ispinesib 0.042

PPP2R5D (UniProt Q14738)
inactive: [1] 0.073 | filanesib -0.078 | zotarolimus 0.091 | idasanutlin -0.084 | alisertib 0.029 | [2] 0.008 | gefitinib -0.005 | [3] -0.005 | lapatinib 0.109 | pictilisib 0.005 | [4] 0 | crizotinib 0.042 | [5] 0.086 | [6] -0.035 | duvelisib 0.015 | gandotinib 0.011 | tozasertib 0.121 | [7] 0.088 | doramapimod -0.033 | ispinesib 0.064

Later entries.

PRRC2C isoform 7 (UniProt Q9Y520)
inactive: [1] -0.065 | filanesib 0.226 | zotarolimus -0.028 | idasanutlin 0.108 | alisertib -0.08 | [2] -0.005 | gefitinib -0.007 | [3] -0.062 | lapatinib 0.058 | pictilisib -0.02 | [4] -0.034 | crizotinib 0.051 | [5] -0.284 | [6] 0.228 | duvelisib -0.109 | gandotinib 0.236 | tozasertib -0.017 | [7] -0.018 | doramapimod 0.113 | ispinesib -0.062
